This is one part of the list.
Experiments:
Experiment in all cases: log2 fold change, soluble protein after heating vs DMSO (PISA); higher = thermal stabilisation; K562 cells, 10 uM, 30 min; active = over 0.2 and 3.5 SD of the protein, either way, in both replicates (recomputed)
[1] = compound: CC1=C(C=C(C=C1)NC(=O)C2=CC(=CC=C2)C(C)(C)C#N)NC3=CC4=C(C=C3)N=CN(C4=O)C
Procedure, shortened: (§1)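 K562 cells at 2×10^6 cells/mL were given 10 μM compound for 30 min. Aliquots then went through 3 min of heating across 48°C-58°C, were pooled, and were extracted in PBS with 0.5% NP-40 at 4°C, and the supernatant after 21,000xg for 90 min was quantified by TMTpro 16plex LC-MS/MS with channel sums equalised. Thermal stability relative to control samples, from duplicates, is given as log2 fold change.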

Amino acid sequences for entries named in this document (tags omitted). A change or cut given only in a name is not applied to a line headed by its entry.
UniProt Q8IX90, whole entry, looked up: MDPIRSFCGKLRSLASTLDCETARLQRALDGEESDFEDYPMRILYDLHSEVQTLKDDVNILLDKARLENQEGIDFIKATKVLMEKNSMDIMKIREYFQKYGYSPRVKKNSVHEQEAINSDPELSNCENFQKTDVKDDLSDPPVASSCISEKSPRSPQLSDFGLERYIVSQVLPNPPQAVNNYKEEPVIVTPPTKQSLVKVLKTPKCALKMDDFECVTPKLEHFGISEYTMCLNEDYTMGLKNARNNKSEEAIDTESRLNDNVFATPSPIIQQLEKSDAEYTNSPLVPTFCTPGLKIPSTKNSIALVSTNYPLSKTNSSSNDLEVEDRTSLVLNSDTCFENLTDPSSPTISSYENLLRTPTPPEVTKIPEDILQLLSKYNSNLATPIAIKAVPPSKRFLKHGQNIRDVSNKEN
UniProt P36955: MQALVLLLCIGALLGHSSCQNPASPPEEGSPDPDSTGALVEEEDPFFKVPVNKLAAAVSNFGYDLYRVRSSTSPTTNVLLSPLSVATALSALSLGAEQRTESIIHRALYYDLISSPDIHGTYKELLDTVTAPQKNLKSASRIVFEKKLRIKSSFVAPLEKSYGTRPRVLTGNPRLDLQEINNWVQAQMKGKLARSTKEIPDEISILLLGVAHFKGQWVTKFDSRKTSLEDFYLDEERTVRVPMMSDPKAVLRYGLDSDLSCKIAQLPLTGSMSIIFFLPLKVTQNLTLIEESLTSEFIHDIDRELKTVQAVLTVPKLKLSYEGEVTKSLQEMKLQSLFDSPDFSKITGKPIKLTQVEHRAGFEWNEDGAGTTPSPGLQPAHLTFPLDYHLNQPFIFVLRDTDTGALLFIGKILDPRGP
UniProt Q15459: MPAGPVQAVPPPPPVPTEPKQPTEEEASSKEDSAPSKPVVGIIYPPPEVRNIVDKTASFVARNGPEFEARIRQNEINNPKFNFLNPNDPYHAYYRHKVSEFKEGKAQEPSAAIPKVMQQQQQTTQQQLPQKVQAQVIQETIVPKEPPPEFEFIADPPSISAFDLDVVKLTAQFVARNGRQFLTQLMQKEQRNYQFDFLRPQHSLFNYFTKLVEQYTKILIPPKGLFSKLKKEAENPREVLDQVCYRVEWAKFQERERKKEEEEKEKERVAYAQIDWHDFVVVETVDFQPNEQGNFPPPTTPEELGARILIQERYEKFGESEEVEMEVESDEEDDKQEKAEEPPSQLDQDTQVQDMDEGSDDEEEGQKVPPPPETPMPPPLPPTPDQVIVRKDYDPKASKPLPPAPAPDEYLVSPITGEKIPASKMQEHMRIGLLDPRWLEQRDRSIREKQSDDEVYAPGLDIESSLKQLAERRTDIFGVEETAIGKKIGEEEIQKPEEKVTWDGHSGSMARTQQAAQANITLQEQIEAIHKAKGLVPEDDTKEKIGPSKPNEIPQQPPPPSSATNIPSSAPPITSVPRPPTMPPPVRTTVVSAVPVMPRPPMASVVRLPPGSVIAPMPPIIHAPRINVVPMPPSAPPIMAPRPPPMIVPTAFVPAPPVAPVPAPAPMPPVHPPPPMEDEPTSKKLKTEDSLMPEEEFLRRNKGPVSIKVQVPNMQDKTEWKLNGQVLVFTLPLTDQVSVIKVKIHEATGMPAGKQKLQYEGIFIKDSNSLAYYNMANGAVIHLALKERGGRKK
UniProt P08697: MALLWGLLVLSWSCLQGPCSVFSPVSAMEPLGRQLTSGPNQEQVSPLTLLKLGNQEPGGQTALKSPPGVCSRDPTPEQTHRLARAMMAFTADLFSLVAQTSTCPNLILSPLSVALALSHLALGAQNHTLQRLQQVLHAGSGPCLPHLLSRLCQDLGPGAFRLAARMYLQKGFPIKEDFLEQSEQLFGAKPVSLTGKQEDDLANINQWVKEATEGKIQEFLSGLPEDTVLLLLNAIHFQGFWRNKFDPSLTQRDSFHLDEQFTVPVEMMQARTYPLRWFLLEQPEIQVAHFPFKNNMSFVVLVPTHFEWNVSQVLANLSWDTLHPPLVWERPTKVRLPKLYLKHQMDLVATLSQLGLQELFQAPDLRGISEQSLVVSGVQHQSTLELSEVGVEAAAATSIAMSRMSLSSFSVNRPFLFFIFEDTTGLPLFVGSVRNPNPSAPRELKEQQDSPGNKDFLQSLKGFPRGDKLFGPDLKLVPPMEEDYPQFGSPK
UniProt Q587I9: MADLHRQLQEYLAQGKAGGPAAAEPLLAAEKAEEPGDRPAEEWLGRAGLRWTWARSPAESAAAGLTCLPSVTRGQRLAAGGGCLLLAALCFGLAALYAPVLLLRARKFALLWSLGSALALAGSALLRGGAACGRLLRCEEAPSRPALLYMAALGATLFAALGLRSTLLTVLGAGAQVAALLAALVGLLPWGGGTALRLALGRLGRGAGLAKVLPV
UniProt P01008, whole entry, looked up: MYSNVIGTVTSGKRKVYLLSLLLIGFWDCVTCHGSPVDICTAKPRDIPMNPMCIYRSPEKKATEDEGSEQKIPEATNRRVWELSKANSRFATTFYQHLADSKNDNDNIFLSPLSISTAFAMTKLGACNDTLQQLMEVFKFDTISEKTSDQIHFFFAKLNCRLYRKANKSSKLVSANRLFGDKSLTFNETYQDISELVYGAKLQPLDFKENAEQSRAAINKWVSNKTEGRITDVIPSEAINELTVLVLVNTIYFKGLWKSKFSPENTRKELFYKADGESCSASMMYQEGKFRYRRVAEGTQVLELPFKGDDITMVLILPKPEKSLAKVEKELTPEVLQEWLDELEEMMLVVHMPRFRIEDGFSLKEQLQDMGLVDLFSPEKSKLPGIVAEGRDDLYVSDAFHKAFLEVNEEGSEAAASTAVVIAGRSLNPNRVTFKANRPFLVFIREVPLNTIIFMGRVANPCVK
UniProt P49903: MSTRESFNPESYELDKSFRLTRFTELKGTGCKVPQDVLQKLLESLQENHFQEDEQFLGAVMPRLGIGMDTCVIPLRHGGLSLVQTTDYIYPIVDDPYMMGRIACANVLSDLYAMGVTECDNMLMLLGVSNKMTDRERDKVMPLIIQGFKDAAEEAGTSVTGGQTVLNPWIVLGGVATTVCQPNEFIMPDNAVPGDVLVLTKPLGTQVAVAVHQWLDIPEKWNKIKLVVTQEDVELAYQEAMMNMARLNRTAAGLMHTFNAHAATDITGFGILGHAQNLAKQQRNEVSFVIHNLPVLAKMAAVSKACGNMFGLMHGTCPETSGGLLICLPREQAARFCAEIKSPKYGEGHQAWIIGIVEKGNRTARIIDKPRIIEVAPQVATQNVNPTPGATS
UniProt P29353: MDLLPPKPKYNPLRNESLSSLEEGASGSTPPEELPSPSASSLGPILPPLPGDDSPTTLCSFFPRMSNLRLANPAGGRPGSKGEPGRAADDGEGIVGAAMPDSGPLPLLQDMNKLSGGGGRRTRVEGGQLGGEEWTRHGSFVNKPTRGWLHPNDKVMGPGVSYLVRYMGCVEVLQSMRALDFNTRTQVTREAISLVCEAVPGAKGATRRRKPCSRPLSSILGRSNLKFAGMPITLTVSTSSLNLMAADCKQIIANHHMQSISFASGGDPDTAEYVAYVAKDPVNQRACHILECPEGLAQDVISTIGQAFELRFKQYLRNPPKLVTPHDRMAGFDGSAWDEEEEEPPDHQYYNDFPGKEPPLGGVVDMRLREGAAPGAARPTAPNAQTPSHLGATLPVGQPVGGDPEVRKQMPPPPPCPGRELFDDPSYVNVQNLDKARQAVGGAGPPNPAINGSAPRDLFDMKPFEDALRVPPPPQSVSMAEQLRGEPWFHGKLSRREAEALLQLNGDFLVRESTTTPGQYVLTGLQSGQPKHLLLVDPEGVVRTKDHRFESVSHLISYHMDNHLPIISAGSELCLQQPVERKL
UniProt Q9UQ13: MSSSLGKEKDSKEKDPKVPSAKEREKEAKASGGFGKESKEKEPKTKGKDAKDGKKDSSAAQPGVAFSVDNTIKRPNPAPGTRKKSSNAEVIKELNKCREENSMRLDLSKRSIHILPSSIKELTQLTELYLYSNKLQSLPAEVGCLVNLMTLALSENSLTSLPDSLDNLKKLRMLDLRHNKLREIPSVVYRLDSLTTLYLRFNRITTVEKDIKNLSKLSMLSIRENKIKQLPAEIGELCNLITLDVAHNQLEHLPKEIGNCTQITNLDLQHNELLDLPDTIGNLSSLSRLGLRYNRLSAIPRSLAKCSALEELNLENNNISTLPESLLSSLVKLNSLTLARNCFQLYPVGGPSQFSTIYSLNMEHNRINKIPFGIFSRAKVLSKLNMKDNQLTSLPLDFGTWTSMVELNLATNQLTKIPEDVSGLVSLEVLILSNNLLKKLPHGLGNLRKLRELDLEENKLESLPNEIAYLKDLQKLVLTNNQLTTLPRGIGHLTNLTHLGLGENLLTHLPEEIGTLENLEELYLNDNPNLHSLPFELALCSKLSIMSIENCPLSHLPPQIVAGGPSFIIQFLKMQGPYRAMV
UniProt P30740: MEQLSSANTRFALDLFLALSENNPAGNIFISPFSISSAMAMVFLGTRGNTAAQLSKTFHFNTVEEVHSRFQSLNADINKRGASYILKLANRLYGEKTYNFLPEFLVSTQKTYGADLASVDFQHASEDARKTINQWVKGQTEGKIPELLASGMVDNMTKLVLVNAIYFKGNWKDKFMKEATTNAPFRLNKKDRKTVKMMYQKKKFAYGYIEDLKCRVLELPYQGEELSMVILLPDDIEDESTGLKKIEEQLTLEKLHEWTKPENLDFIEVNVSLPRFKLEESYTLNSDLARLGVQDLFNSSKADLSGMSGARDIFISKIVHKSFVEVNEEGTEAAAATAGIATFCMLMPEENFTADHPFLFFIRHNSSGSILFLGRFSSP
UniProt Q6P4A7: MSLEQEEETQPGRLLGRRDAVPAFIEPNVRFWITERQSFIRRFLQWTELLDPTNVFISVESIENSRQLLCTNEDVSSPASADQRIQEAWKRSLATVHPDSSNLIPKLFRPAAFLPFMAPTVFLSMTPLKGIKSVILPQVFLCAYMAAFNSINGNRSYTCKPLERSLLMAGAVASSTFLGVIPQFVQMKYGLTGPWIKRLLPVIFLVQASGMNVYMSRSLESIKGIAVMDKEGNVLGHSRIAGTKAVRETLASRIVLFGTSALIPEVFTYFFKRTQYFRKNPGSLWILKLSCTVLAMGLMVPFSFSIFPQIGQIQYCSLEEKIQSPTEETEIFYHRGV
UniProt Q9UJC5: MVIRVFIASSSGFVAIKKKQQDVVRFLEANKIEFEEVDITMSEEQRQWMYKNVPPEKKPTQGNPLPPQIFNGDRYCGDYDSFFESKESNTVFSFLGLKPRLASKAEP
UniProt O75533, whole entry, looked up: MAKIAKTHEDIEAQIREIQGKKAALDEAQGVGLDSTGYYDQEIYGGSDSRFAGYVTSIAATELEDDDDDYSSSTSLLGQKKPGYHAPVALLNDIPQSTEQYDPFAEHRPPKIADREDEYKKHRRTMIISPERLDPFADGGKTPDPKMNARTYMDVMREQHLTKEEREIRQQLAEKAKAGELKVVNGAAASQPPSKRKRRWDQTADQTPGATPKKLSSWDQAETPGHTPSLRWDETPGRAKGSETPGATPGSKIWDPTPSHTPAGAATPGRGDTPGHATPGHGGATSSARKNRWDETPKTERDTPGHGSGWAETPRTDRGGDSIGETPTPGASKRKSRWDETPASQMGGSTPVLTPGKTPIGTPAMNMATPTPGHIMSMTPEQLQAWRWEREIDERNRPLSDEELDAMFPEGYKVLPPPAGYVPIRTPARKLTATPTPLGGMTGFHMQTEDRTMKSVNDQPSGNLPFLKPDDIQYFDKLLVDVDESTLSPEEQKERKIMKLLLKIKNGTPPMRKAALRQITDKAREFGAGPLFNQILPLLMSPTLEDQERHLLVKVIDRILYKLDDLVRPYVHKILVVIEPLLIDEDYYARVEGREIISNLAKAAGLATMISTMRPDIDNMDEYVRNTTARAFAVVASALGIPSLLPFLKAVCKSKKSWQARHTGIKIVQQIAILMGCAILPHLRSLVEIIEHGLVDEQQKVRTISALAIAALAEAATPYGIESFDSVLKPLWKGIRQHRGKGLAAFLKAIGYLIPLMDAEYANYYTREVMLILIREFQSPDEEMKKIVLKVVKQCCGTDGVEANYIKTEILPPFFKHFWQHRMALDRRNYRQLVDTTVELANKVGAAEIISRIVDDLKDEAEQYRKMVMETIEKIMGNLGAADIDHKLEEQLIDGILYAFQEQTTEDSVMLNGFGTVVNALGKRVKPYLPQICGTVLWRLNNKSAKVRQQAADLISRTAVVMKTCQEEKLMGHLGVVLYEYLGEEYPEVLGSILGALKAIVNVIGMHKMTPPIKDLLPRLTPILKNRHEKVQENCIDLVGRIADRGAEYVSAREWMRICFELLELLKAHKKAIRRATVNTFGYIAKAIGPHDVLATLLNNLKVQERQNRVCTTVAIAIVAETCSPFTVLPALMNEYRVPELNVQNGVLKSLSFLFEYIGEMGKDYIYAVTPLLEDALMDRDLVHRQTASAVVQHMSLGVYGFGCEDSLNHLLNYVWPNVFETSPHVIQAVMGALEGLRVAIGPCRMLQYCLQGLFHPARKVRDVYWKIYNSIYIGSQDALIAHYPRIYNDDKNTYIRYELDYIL

[2] = compound: CC1=C(C=C(C=C1)NC(=O)C2=CC(=CC=C2)N(C)C)NC(=O)C3=CC=C(C=C3)O
Procedure, shortened: as §1

[3] = compound: CC1=CC=C(C=C1)SC2=C3C=C(SC3=CN=C2)C(=O)N
Procedure, shortened: as §1

[4] = compound: CC1=NC(=CC=C1)C2=C(N=C(N2)C(C)(C)C)C3=CC4=NC=CN=C4C=C3
Procedure, shortened: as §1

Nexturastat A = compound: CCCCN(Cc1ccc(C(=O)NO)cc1)C(=O)Nc1ccccc1 [Nexturastat A]
Procedure, shortened: as §1

vemurafenib = compound: CCCS(=O)(=O)Nc1ccc(F)c(C(=O)c2c[nH]c3ncc(-c4ccc(Cl)cc4)cc23)c1F [vemurafenib]
Procedure, shortened: as §1

[5] = compound: CCCS(=O)(=O)Nc1ccc(F)c(C(=O)c2c[nH]c3ncc(Cl)cc23)c1F
Procedure, shortened: as §1

[6] = compound: CCCc1cc(C)[nH]c(=O)c1CNC(=O)c1cc(-c2ccnc(N3CCN(C)CC3)c2)cc2c1cnn2C(C)C
Procedure, shortened: as §1

givinostat = compound: CCN(CC)Cc1ccc2cc(COC(=O)Nc3ccc(C(=O)NO)cc3)ccc2c1 [givinostat]
Procedure, shortened: as §1

barasertib = compound: CCN(CCCOc1ccc2c(Nc3cc(CC(=O)Nc4cccc(F)c4)[nH]n3)ncnc2c1)CCOP(=O)(O)O [barasertib]
Procedure, shortened: as §1

[7] = compound: CC[C@@H]1C(=O)N(C)c2cnc(Nc3ccc(C(=O)NC4CCN(C)CC4)cc3OC)nc2N1C1CCCC1
Procedure, shortened: as §1

volasertib = compound: CC[C@@H]1C(=O)N(C)c2cnc(Nc3ccc(C(=O)N[C@H]4CC[C@H](N5CCN(CC6CC6)CC5)CC4)cc3OC)nc2N1C(C)C [volasertib]
Procedure, shortened: as §1

[8] = compound: CC[C@H](C)N1C=C(C2=C(C=C(C=C21)C3=CN=C(C=C3)N4CCNCC4)C(=O)NCC5=C(C=C(NC5=O)C)C)C
Procedure, shortened: as §1

epoxomicin = compound: CC[C@H](C)[C@@H](C(=O)N[C@@H]([C@@H](C)O)C(=O)N[C@@H](CC(C)C)C(=O)[C@]1(CO1)C)NC(=O)[C@H]([C@@H](C)CC)N(C)C(=O)C [epoxomicin]
Procedure, shortened: as §1

[9] = compound: CCn1c(C(=O)N(C2CC2)C2CC2)cc2c3c(ncn3C)c(Nc3cc(C)n(C)n3)nc21
Procedure, shortened: as §1

[10] = compound: CCn1cc(-c2ccnc3[nH]c(-c4cccc(CN(C)C)c4)cc23)c(-c2ccc(NC(=O)N(C)C)cc2)n1
Procedure, shortened: as §1

[11] = compound: CN(C)CC(=O)Nc1ccc2[nH]c(=O)c3ccccc3c2c1
Procedure, shortened: as §1

rosiglitazone = compound: CN(CCOC1=CC=C(C=C1)C[C@H]2C(=O)NC(=O)S2)C3=CC=CC=N3 (racemic) [rosiglitazone]
Procedure, shortened: as §1

[12] = compound: CN1C2=C(C3=C1C(=O)N(N=C3)CC4=CC(=CC=C4)N)SC(=C2)S(=O)C
Procedure, shortened: as §1

[13] = compound: CN1CCC(CNc2ccc3ncc(-c4cccc(OC(F)(F)F)c4)n3n2)CC1
Procedure, shortened: as §1

Measured: log2 fold change

SKA3 (UniProt Q8IX90)
inactive: [1] 0.021 | [2] 0.057 | [3] -0.072 | [4] 0.001 | Nexturastat A 0.262 | vemurafenib 0.02 | [5] 0.041 | [6] 0.02 | givinostat 0.039 | barasertib 0.051 | [7] 0.045 | volasertib -0.014 | [8] 0.039 | epoxomicin -0.108 | [9] -0.094 | [10] -0.034 | [11] -0.139 | rosiglitazone 0 | [12] 0.239 | [13] 0.122

SERPINF1 (UniProt P36955)
inactive: [1] -0.038 | [2] 0.125 | [3] -0.015 | [4] 0.018 | Nexturastat A -0.053 | vemurafenib -0.033 | [5] -0.009 | [6] 0.003 | givinostat -0.025 | barasertib -0.055 | [7] -0.045 | volasertib 0.052 | [8] -0.184 | epoxomicin -0.06 | [9] 0.118 | [10] 0.032 | [11] -0.134 | rosiglitazone 0.044 | [12] 0.026 | [13] 0.21

SF3A1 (UniProt Q15459)
inactive: [1] 0.033 | [2] -0.041 | [3] -0.004 | [4] 0.026 | Nexturastat A -0.011 | vemurafenib 0.028 | [5] -0.001 | [6] -0.011 | givinostat 0.015 | barasertib 0.022 | [7] -0.006 | volasertib -0.08 | [8] 0.002 | epoxomicin -0.02 | [9] -0.055 | [10] 0.01 | [11] 0.007 | rosiglitazone 0.002 | [12] 0.008 | [13] 0.113

SERPINF2 (UniProt P08697)
inactive: [1] -0.079 | [2] 0.278 | [3] 0.188 | [4] 0.137 | Nexturastat A -0.057 | vemurafenib 0.047 | [5] -0.06 | [6] -0.414 | givinostat -0.154 | barasertib -0.204 | [7] -0.017 | volasertib -0.01 | [8] -0.163 | epoxomicin -0.378 | [9] -0.213 | [10] 0.001 | [11] -0.03 | rosiglitazone -0.173 | [12] 0.16 | [13] -0.097

SFT2D3 (UniProt Q587I9)
inactive: [1] 0.027 | [2] -0.011 | [3] -0.047 | [4] 0.025 | Nexturastat A 0.047 | vemurafenib -0.014 | [5] -0.203 | [6] -0.064 | givinostat -0.038 | barasertib 0.253 | [7] 0.018 | volasertib 0.063 | [8] -0.041 | epoxomicin 0.003 | [9] 0.014 | [10] 0.106 | [11] 0.052 | rosiglitazone 0.238 | [12] -0.096 | [13] 0.193

SERPINC1 (UniProt P01008)
inactive: [1] -0.032 | [2] 0.586 | [3] 0.206 | [4] 0.019 | Nexturastat A -0.138 | vemurafenib 0.072 | [5] -0.152 | [6] -0.236 | givinostat 0.021 | barasertib -0.065 | [7] -0.003 | volasertib 0.101 | [8] -0.048 | epoxomicin -0.54 | [9] 0.037 | [10] 0.101 | [11] -0.006 | rosiglitazone 0.028 | [12] 0.155 | [13] 0.049

SEPHS1 (UniProt P49903)
inactive: [1] 0.067 | [2] 0.02 | [3] 0.065 | [4] 0.017 | Nexturastat A -0.056 | vemurafenib 0.009 | [5] 0.02 | [6] -0.016 | givinostat 0.018 | barasertib -0.016 | [7] 0.029 | volasertib 0.041 | [8] -0.026 | epoxomicin 0.022 | [9] 0.016 | [10] 0.004 | [11] 0.021 | rosiglitazone -0.003 | [12] -0.071 | [13] -0.006

SHC1 isoform 6 (UniProt P29353)
inactive: [1] 0.016 | [2] -0.004 | [3] 0.031 | [4] 0.011 | Nexturastat A -0.156 | vemurafenib -0.013 | [5] 0.001 | [6] -0.005 | givinostat 0.017 | barasertib 0.006 | [7] -0.018 | volasertib -0.025 | [8] 0 | epoxomicin 0 | [9] -0.01 | [10] -0.004 | [11] 0.012 | rosiglitazone 0.036 | [12] -0.036 | [13] -0.014

SLAIN2 (UniProt Q9P270)
inactive: [1] -0.079 | [2] 0.037 | [3] -0.009 | [4] 0.052 | Nexturastat A 0.04 | vemurafenib -0.094 | [5] -0.036 | [6] -0.013 | givinostat 0.031 | barasertib -0.025 | [7] 0.067 | volasertib 0.139 | [8] -0.046 | epoxomicin -0.014 | [9] -0.023 | [10] 0.046 | [11] -0.027 | rosiglitazone -0.015 | [12] 0.086 | [13] 0.115

SHOC2 (UniProt Q9UQ13)
inactive: [1] -0.073 | [2] -0.039 | [3] 0.014 | [4] -0.012 | Nexturastat A -0.007 | vemurafenib 0.042 | [5] 0.007 | [6] -0.012 | givinostat 0.072 | barasertib 0.04 | [7] 0.088 | volasertib -0.02 | [8] 0.035 | epoxomicin 0.004 | [9] -0.014 | [10] -0.107 | [11] 0.045 | rosiglitazone 0.009 | [12] 0.003 | [13] -0.038

SERPINB1 (UniProt P30740)
inactive: [1] -0.005 | [2] 0.007 | [3] -0.001 | [4] 0.035 | Nexturastat A -0.064 | vemurafenib 0 | [5] 0.017 | [6] -0.028 | givinostat 0.006 | barasertib 0.005 | [7] -0.006 | volasertib 0.01 | [8] 0.038 | epoxomicin 0.041 | [9] 0.047 | [10] -0.065 | [11] -0.004 | rosiglitazone 0.032 | [12] -0.074 | [13] 0.006

SFXN4 (UniProt Q6P4A7)
inactive: [1] 0.006 | [2] 0 | [3] 0.038 | [4] 0.05 | Nexturastat A -0.015 | vemurafenib 0.011 | [5] 0 | [6] 0.016 | givinostat 0.014 | barasertib -0.044 | [7] 0.062 | volasertib -0.016 | [8] -0.044 | epoxomicin -0.037 | [9] 0.007 | [10] -0.045 | [11] 0.042 | rosiglitazone 0.008 | [12] -0.038 | [13] 0.049

SEPTIN4 isoform 4 (UniProt O43236)
inactive: [1] 0.405 | [2] -0.029 | [3] 0.028 | [4] 0.612 | Nexturastat A -0.284 | vemurafenib 0.146 | [5] 0.091 | [6] 0.043 | givinostat -0.039 | barasertib -0.038 | [7] 0.143 | volasertib -0.022 | [8] 0.023 | epoxomicin 0.052 | [9] 0.042 | [10] -0.05 | [11] 0.112 | rosiglitazone -0.003 | [12] -0.051 | [13] -0.007

Taken from the listing (five entries):
SERPINC1 (UniProt P01008)
inactive: [1] -0.032 | [2] 0.586 | [3] 0.206 | [4] 0.019 | Nexturastat A -0.138 | vemurafenib 0.072 | [5] -0.152 | [6] -0.236 | givinostat 0.021 | barasertib -0.065 | [7] -0.003 | volasertib 0.101 | [8] -0.048 | epoxomicin -0.54 | [9] 0.037 | [10] 0.101 | [11] -0.006 | rosiglitazone 0.028 | [12] 0.155 | [13] 0.049

SEPHS1 (UniProt P49903)
inactive: [1] 0.067 | [2] 0.02 | [3] 0.065 | [4] 0.017 | Nexturastat A -0.056 | vemurafenib 0.009 | [5] 0.02 | [6] -0.016 | givinostat 0.018 | barasertib -0.016 | [7] 0.029 | volasertib 0.041 | [8] -0.026 | epoxomicin 0.022 | [9] 0.016 | [10] 0.004 | [11] 0.021 | rosiglitazone -0.003 | [12] -0.071 | [13] -0.006

SHC1 isoform 6 (UniProt P29353)
inactive: [1] 0.016 | [2] -0.004 | [3] 0.031 | [4] 0.011 | Nexturastat A -0.156 | vemurafenib -0.013 | [5] 0.001 | [6] -0.005 | givinostat 0.017 | barasertib 0.006 | [7] -0.018 | volasertib -0.025 | [8] 0 | epoxomicin 0 | [9] -0.01 | [10] -0.004 | [11] 0.012 | rosiglitazone 0.036 | [12] -0.036 | [13] -0.014

SLAIN2 (UniProt Q9P270)
inactive: [1] -0.079 | [2] 0.037 | [3] -0.009 | [4] 0.052 | Nexturastat A 0.04 | vemurafenib -0.094 | [5] -0.036 | [6] -0.013 | givinostat 0.031 | barasertib -0.025 | [7] 0.067 | volasertib 0.139 | [8] -0.046 | epoxomicin -0.014 | [9] -0.023 | [10] 0.046 | [11] -0.027 | rosiglitazone -0.015 | [12] 0.086 | [13] 0.115

SHOC2 (UniProt Q9UQ13)
inactive: [1] -0.073 | [2] -0.039 | [3] 0.014 | [4] -0.012 | Nexturastat A -0.007 | vemurafenib 0.042 | [5] 0.007 | [6] -0.012 | givinostat 0.072 | barasertib 0.04 | [7] 0.088 | volasertib -0.02 | [8] 0.035 | epoxomicin 0.004 | [9] -0.014 | [10] -0.107 | [11] 0.045 | rosiglitazone 0.009 | [12] 0.003 | [13] -0.038

Further results.

SH3BGRL2 (UniProt Q9UJC5)
inactive: [1] -0.037 | [2] -0.007 | [3] -0.023 | [4] -0.047 | Nexturastat A 0.019 | vemurafenib 0.032 | [5] 0.044 | [6] -0.024 | givinostat 0.018 | barasertib 0.042 | [7] 0.084 | volasertib -0.018 | [8] 0.066 | epoxomicin -0.01 | [9] 0.025 | [10] -0.059 | [11] 0.076 | rosiglitazone -0.026 | [12] -0.131 | [13] 0.007

SET isoform 2 (UniProt Q01105)
inactive: [1] 0.041 | [2] 0.028 | [3] 0.003 | [4] 0.039 | Nexturastat A -0.059 | vemurafenib 0.032 | [5] -0.02 | [6] -0.027 | givinostat -0.022 | barasertib 0.035 | [7] -0.023 | volasertib 0.083 | [8] -0.015 | epoxomicin -0.038 | [9] 0.015 | [10] 0 | [11] -0.002 | rosiglitazone -0.008 | [12] -0.077 | [13] -0.012

SF3B1 (UniProt O75533)
inactive: [1] 0.045 | [2] -0.049 | [3] 0.025 | [4] 0.007 | Nexturastat A 0.09 | vemurafenib -0.002 | [5] 0.079 | [6] -0.001 | givinostat 0.023 | barasertib -0.007 | [7] 0.004 | volasertib -0.179 | [8] 0.07 | epoxomicin -0.032 | [9] -0.078 | [10] -0.011 | [11] 0.039 | rosiglitazone 0.007 | [12] 0.061 | [13] 0.01

From the supplement of paper PMC10849652
